Assay: Olfactory evaluation of odour characteristics by perfumers
Conditions: odour description, applicant / perfumers
Procedure: The reported NMR spectra were measured in CDCl3 at 400 MHz if not otherwise stated; chemical shifts are reported in ppm downfield from TMS; coupling constants J in Hz. The GC/MS analyses were run using a ZB-5 column, if not stated otherwise. All purified products were either crystallized and isolated as white solids or purified by distillation in vacuo and isolated as colorless oils, the purity was confirmed by GC/MS. Samples for olfactory evaluation were purified by rectification over a distillation column with Sulzer packing.

With “(E/Z)-5,9-dimethyldeca-4,8-dienal and (E/Z)-5,9-dimethyldeca-4,9-dienal [Example 2]” the Odour was “Fruity, apple, citrus, fatty, aldehydic, metallic, slightly hot iron, long lasting” and the Odour (listed as drawing 3) was “fruity, citrus, fatty, slightly hot iron and metallic”.
